{"source": "patent US20210324011A1", "about": "(University of Washington, published 2021)", "binders": {"B1": {"name": "DHF119-YFP (designed binder, not shown: large carriers)", "chain": "MGPEDELKRVEKLVKEAEALLIVAKIKGSKRDLEKALRTAEEAAREAVKVLVQALLEGDPEVALRAVELVVRVAELLLRIAKESGSREALLRALIVAEEAAKLAKMVLELAEKQGDPEVALRAVELVVRVAELLLRIAKESGSEEALERALRVAEEAARLAKRVLELAEEQGDPLVAKMAVELVKRVAELLERIARESGSEEAKERAERVREEARELQERVKELREREGLE"}}, "molecular_target": "DHF119_C6_GFP_anchor", "experiment": "TIRF microscopy, biotinylated anchor on glass slide, 1.16 uM DHF119-YFP", "note": "These are yes or no findings as the source states them, for the method shown. Some results given as binding are weak or reduced against the parent protein; the word gives no strength. Where a sequence is shown, tags or fusion partners need not be part of it."}
{"binder": "B1", "values": [{"measurement": "binding", "result": "binds"}]}
